Results on 1 molecule are retold here after US12638438B2, “Screening methods using canine T2R receptors and pet food products and compositions identified using the same” (MARS, INCORPORATED, priority 2015, dated 2026).

By UniProt entry, the sequences of proteins in these tests, tags left out. Residues count along the entry.
UniProt A0A8I3SCV7, 1-299: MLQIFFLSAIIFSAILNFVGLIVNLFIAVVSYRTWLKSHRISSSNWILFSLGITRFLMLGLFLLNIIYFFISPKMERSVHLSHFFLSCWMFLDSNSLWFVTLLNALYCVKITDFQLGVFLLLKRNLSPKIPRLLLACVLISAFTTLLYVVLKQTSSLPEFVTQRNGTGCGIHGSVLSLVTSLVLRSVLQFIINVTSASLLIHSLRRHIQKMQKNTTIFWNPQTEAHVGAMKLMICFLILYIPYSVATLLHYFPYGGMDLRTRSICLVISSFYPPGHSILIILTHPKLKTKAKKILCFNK

This experiment deals with canine T2R4 (Canis lupus, UniProt A0A8I3SCV7). The experiment in a line: cell-based.

What is called EC50 is the concentration needed to bring the measured effect to its halfway point. Lower therefore signals greater potency. `COc1cc2c(c(OC)c1OC)-c1ccc(OC)c(=O)cc1[C@@H](NC(C)=O)CC2` [Colchicine] showed an EC50 of 2580 ± 167 µM.
